# Source: patent US10751335B2 (priority 2016, dated 2020)
# Details: mouse, in vivo, ip, 6 mg/kg
structure (smiles),measurement,value
CN1CC[C@]23c4c5ccc(O)c4O[C@H]2[C@@H](O)C=C[C@H]3[C@H]1C5 [morphine],plasma and brain levels at various time points,not detectable
